From patent US20210128684A1
Results are given in words; binding and its absence hold for the method and conditions named. Some entries that bind do so weakly or less than the wild type. Tags and fused reporters may be left off the sequences shown.

Amino acid sequences for entries named in this document (tags omitted). A change or cut given only in a name is not applied to a line headed by its entry. Chains listed by the source or under a name are the forms on record and can include a tag or linker.
rhOPN (recombinant human osteopontin, cod. 1433-OP-050/CF, R&D system) (P10451, form named): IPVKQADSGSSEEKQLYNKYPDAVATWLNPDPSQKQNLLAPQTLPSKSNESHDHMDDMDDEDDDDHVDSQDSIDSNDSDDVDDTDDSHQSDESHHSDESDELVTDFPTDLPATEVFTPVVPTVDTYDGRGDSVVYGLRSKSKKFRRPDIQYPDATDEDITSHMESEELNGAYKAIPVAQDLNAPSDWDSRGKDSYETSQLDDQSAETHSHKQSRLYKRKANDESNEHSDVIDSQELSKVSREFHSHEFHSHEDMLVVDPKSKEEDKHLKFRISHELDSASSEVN

Assays:
[1] = target: rhOPN (recombinant human osteopontin, cod. 1433-OP-050/CF, R&D system) (human) (UniProt P10451); assay: ELISA, OPN coated (figure legend)
[2] = target: rhOPN (recombinant human osteopontin, cod. 1433-OP-050/CF, R&D system) (human) (UniProt P10451); assay: ELISA, OPN coated, titrated B7h-Fc, anti-IgG1 mAb detection
[3] = target: rhOPN (recombinant human osteopontin, cod. 1433-OP-050/CF, R&D system) (human) (UniProt P10451); assay: ELISA and pull-down of FIG. 6, as told in the description
[4] = target: rhOPN (recombinant human osteopontin, cod. 1433-OP-050/CF, R&D system) (human) (UniProt P10451); assay: pull-down, B7h-Fc bait on Sepharose, Western blot with anti-OPN
[5] = target: rhOPN (recombinant human osteopontin, cod. 1433-OP-050/CF, R&D system) (human) (UniProt P10451); assay: ELISA, OPN coated, titrated B7h-Fc in the presence of ICOS-Fc as competitor

binding [1]: binds
binding [2]: binds
binding [3]: binds
binding [4]: binds
binding [5]: binds
B1: rhB7h2-Fc (recombinant soluble B7h-Fc, cod. 165-B7-100, R&D system) (Fc fusion, human, UniProt O75144 19-258, looked up, not shown: a dimerising Fc or GST)
chain: DTQEKEVRAMVGSDVELSCACPEGSRFDLNDVYVYWQTSESKTVVTYHIPQNSSLENVDSRYRNRALMSPAGMLRGDFSLRLFNVTPQDEQKFHCLVLSQSLGFQEVLSVEVTLHVAANFSVPVVSAPHSPSQDELTFTCTSINGYPRPNVYWINKTDNSLLDQALQNDTVFLNMRGLYDVVSVLRIARTPSVNIGCCIENVLLQQNLTVGSQTGNDIGERDKITENPVSTGEKNAATWS
